PubChem BioAssay AID720505 – Drosophila RNAi Screening Center – 2013
Purpose: 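Genes needed for store-operated calcium entry in fly cells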 (primary screen). Cells: Drosophila S2R+ cells. Reagent: long dsRNA against Drosophila genes. Challenge: thapsigargin (2 µM) in calcium-free buffer to empty internal stores, then 2 mM calcium added back. Read-out: 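Stores emptied by 2 µM thapsigargin without calcium, then 2 mM calcium re-added; fluo-4 fluorescence followed by FLIPR in 384-well plates, per-well averaged endpoint, raw; two screen passes, some wells retested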. Direction: calcium signal and retest calcium signal: higher = more calcium entry after store depletion. Call rule: 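Knock-downs counted as hits when calcium entry dropped relative to STIM1 positive and Rho1 negative controls present on each plate; roughly 1500 genes called, with reductions of differing size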. Meaning of the calls: active = called as lowering calcium entry; inactive = not called.
The screen tested about 20,000 reagents; this is an unselected part of those that have a named target and a result. Over the whole deposit, about 2,100 (10%) were called active. 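Raw plate signals without normalisation; calls rest on control-based scores that were not deposited; replicate 2 separates called from uncalled poorly.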 Reagents against one gene are numbered here. A plus sign joins genes that one reagent is predicted to hit. Not stated in the record: the amount of reagent, the time to read-out.

| target gene | dsRNA no. | calcium signal, replicate 1 | calcium signal, replicate 2 | retest calcium signal, replicate 1 | retest calcium signal, replicate 2 | outcome |
| --- | --- | --- | --- | --- | --- | --- |
| CG1986 | 1 | 102 | 84.5 | – | – | inactive |
| BG642163 | 1 | 81.1 | 97.3 | – | – | inactive |
| BG642163 | 2 | 114 | 106 | – | – | inactive |
| Cap-D3 | 1 | 93.3 | 118 | – | – | inactive |
| aln | 1 | 84.4 | 90 | – | – | inactive |
| snoRNA:Me28S-A982b + Uhg4 + snoRNA:Me28S-G3255a + 1 more | 1 | 78.5 | 88.9 | – | – | inactive |
| CG13326 | 1 | 134 | 195 | – | – | inactive |
| CG6893 | 1 | 85.5 | 161 | – | – | inactive |
| CG31051 | 1 | 87.4 | 116 | – | – | inactive |
| prtp | 1 | 138 | 91.3 | 6257 | 151 | inactive |
| prtp | 2 | 116 | 185 | – | – | inactive |
| dpa | 1 | 176 | 119 | – | – | inactive |
| NFAT | 1 | 81.1 | 74 | – | – | inactive |
| NFAT | 2 | 47.7 | 78.3 | – | – | active |
| CG1910 | 1 | 99.9 | 118 | – | – | inactive |
| e(y)2b | 1 | 107 | 178 | – | – | inactive |
| l(2)41Ab | 1 | 109 | 9425 | – | – | inactive |
| CG3687 | 1 | 177 | 185 | – | – | inactive |
| CG30279 (retired record) | 1 | 72.9 | 147 | – | – | inactive |
| CG10993 | 1 | 59.1 | 81.1 | – | – | active |
| CG7912 | 1 | 179 | 116 | – | – | inactive |
| InR | 1 | 123 | 123 | – | – | inactive |
| bai | 1 | 174 | 125 | – | – | inactive |
| Grx1 | 1 | 97.4 | 147 | – | – | inactive |
| Tmlh | 1 | 206 | 149 | – | – | inactive |
| CG32638 | 1 | – | – | – | – | active |
| CG3699 | 1 | 101 | 166 | – | – | inactive |
| CG3699 | 2 | 122 | 135 | – | – | inactive |
| CG6066 | 1 | 135 | 186 | – | – | inactive |
| CG6066 | 2 | 55.5 | 176 | – | – | active |
| Uhg2 + snoRNA:Me18S-G1620 + snoRNA:U14:30Ea | 1 | 136 | 125 | – | – | inactive |
| Spt6 | 1 | 68.2 | 77.3 | – | – | active |
| lncRNA:CR42862 + CG33229 | 1 | 156 | 111 | – | – | inactive |
| Ugt37A1 | 1 | 227 | 90 | – | – | inactive |
| CG8419 | 1 | 128 | 122 | – | – | inactive |
| CG15345 (retired record) | 1 | 101 | 259 | 113 | 9297 | active |
| CG15345 (retired record) | 2 | 136 | 213 | – | – | inactive |
| Kdm3 | 1 | 91.3 | 84.3 | – | – | inactive |
| seq | 1 | 123 | 129 | – | – | inactive |
| Or47a | 1 | 84.5 | 134 | – | – | inactive |
| CG3788 | 1 | 145 | 197 | – | – | inactive |
| Psf1 | 1 | 107 | 124 | 131 | 112 | inactive |
| thoc7 | 1 | 135 | 128 | – | – | inactive |
| CG43075 | 1 | 63.2 | 90.8 | – | – | inactive |
| Lipt2 | 1 | 100 | 90.7 | 117 | 98.5 | inactive |
| Lipt2 | 2 | 108 | 206 | – | – | inactive |
| RhoGAPp190 | 1 | 87 | 75.9 | – | – | inactive |
| RhoGAPp190 | 2 | 147 | 128 | – | – | inactive |
| RhoGDI | 1 | 99.4 | 124 | – | – | inactive |
| CG43740 | 1 | 82.7 | 101 | – | – | inactive |
| CG43740 | 2 | 92.7 | 99.2 | – | – | inactive |
| CG43740 | 3 | 90.5 | 152 | – | – | inactive |
| CG43740 | 4 | 110 | 111 | – | – | inactive |
| CG43689 | 1 | 107 | 124 | – | – | inactive |
| CG43689 | 2 | 196 | 126 | – | – | inactive |
| CG43689 | 3 | 109 | 126 | – | – | inactive |
| CG43689 | 4 | 99.6 | 89 | – | – | inactive |
| Mal-A8 | 1 | 193 | 161 | – | – | inactive |
| CG8460 | 1 | 125 | 188 | – | – | inactive |
| E(spl)mdelta-HLH | 1 | 207 | 168 | – | – | inactive |
| mRpL36 | 1 | 93.5 | 81.4 | – | – | inactive |
| CG4887 | 1 | 191 | 102 | – | – | inactive |
| CG4887 | 2 | 169 | 139 | – | – | inactive |
| CG31244 | 1 | 107 | 98.7 | – | – | inactive |
| CG8001 | 1 | 164 | 114 | – | – | inactive |
| RhoGAP54D | 1 | 146 | 125 | – | – | inactive |
| CG11703 | 1 | 135 | 167 | – | – | inactive |
| kis | 1 | 201 | 114 | – | – | inactive |
| kis | 2 | 170 | 140 | – | – | inactive |
| kis | 3 | 83 | 165 | – | – | inactive |
| D12 | 1 | 119 | 292 | – | – | inactive |
| CG11018 | 1 | 145 | 125 | – | – | inactive |
| Syx17 | 1 | 99.2 | 115 | – | – | inactive |
| Pur-alpha | 1 | 123 | 150 | – | – | inactive |
| CG15873 | 1 | 159 | 167 | – | – | inactive |
| Obp83g | 1 | 95.5 | 125 | – | – | inactive |
| Gba1a | 1 | 151 | 115 | – | – | inactive |
| mim | 1 | 67.5 | 97.3 | – | – | active |
| mim | 2 | 137 | 152 | – | – | inactive |
| CG18507 | 1 | 239 | 113 | – | – | inactive |
| CG18507 | 2 | 81.6 | 143 | – | – | inactive |
| CG8476 | 1 | 104 | 147 | – | – | inactive |
| Cda9 | 1 | 138 | 130 | – | – | inactive |
